From PubChem BioAssay AID602313 (National Center for Advancing Translational Sciences (NCATS), 2012)
Hit rate of the full screen: of about 390,000 compounds, about 760 (0.19%) were called active. This list was built around the results that the source calls inconclusive (neither active nor inactive); the mix of calls is not that of the screen. Calls follow the shape of the dose curve; as a rule, active = well fitted inhibition curve with a large enough effect; inconclusive = small, poorly fitted or top-dose-only effect; inactive = flat fitted curve, though single readings scatter. Where the call is inconclusive, the potency comes from a doubtful curve fit.

Assay: qHTS for Inhibitors of Vif-A3F Interactions: qHTS; also: nearly all actives have a fitted effect of over 65% in size
Settings: HeLa A3F-eYFP + Vif (tagged APOBEC3F with the HIV-1 protein that degrades it), YFP fluorescence increase; series mostly up to 46.1 µM
Method in brief: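 Fluorescence increase (Ex 488/Em 500-530) after overnight compound treatment at 37 deg C flags inhibition of Vif-driven A3F-eYFP loss in stable HeLa A3F-eYFP/Vif cells seeded overnight beforehand.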
Potency is read from the fitted curve at half-maximal effect.

SMILES	Potency
NC(=O)C1(N2CCCCC2)CCN(C(=S)NC2CCCC2)CC1	inconclusive: 7.94 µM [inhibitor, partial curve, poor fit]
O=C1CCCC2=C1C(c1ccc(Br)cc1)c1c([nH]c(=S)[nH]c1=O)N2 (stereo unspecified)	inactive
Cc1ccc(CNS(=O)(=O)c2ccc3c(c2)n(C)c(=O)n3C)cc1	inconclusive: 5.62 µM [inhibitor, single point]
Cn1ncc2c(N3CCN(c4ccc(Cl)c(Cl)c4)CC3)ncnc21	inconclusive: 6.31 µM [inhibitor, single point]
CC(=O)c1c(C)oc2ccc(N(C(C)=O)S(=O)(=O)c3ccc(Cl)c([N+](=O)[O-])c3)cc12	inactive
Cc1cc(O)c(C(=O)/C=C/c2c(F)c(F)c(F)c(F)c2F)c(=O)o1	inconclusive: 20 µM [inhibitor, partial curve, poor fit]
O=C1C=CC2(C=C1)O[C@H](Cc1ccccc1)[C@@H](Cc1ccccc1)O2	inactive
Cc1ccc(Nc2nc(N)c3ccccc3n2)cc1Cl	inconclusive: 35.5 µM [inhibitor, single point]
CCOc1ccc(N2C(=O)S/C(=C\c3ccc(O)c(OC)c3)C2=O)cc1	inconclusive: 11.2 µM [inhibitor, partial curve]
Cc1ccc(COC(=O)c2nn(-c3ccccc3)nc2N)cc1	inconclusive: 15.8 µM [inhibitor, single point]
CNC(=O)CSc1nc(-c2ccccc2)c(-c2ccccc2)[nH]1	inconclusive: 7.94 µM [inhibitor, single point]
O=S(=O)(c1ccc(F)cc1)N1CCN(C(=S)NCC2CCCO2)CC1 (stereo unspecified)	inconclusive: 12.6 µM [inhibitor, single point]
COc1ccc(NC(=O)CC2C(=O)N(c3ccc(F)cc3)C(=O)N2Cc2ccco2)cc1 (stereo unspecified)	inactive
Cc1ccc(NC(=O)CSc2ccc(Br)cc2)cc1S(=O)(=O)N1CCOCC1	inconclusive: 3.55 µM [inhibitor, single point]
O=C(NCc1ccccc1)c1nn(-c2ccccc2)nc1CO	inactive
COc1ccc(OC)c(/C=C(/C#N)c2nc(-c3ccc(-c4ccccc4)cc3)cs2)c1	inconclusive: 3.16 µM [inhibitor, single point]
Cc1ccc(S(=O)(=O)Nc2ccc(C(OC(=O)c3ccccc3[N+](=O)[O-])(C(F)(F)F)C(F)(F)F)cc2)cc1	inconclusive: 12.6 µM [inhibitor, single point]
Cc1cc(=O)oc2cc(NS(=O)(=O)c3ccccc3)ccc12	inactive
Cc1ccc(S(=O)(=O)NCC(=O)OCC(=O)N2C(C)CCCC2C)cc1 (stereo unspecified)	inconclusive: 6.31 µM [inhibitor, single point]
CCOC(=O)c1c(NC(=O)COC(=O)c2cc(OC)c(OC)cc2[N+](=O)[O-])sc(C)c1C	inconclusive: 0.562 µM [inhibitor, full curve, poor fit]
Cc1ccc(C)c(NC(=O)CSc2c3c(nc4ccc(Cl)cc24)CCCC3)c1	inconclusive: 35.5 µM [inhibitor, single point]
CCSc1nnc(NC(=O)c2ccc(Br)s2)s1	inactive

Among those listed so far, 3 have bromine:
SMILES	Potency
O=C1CCCC2=C1C(c1ccc(Br)cc1)c1c([nH]c(=S)[nH]c1=O)N2 (stereo unspecified)	inactive
Cc1ccc(NC(=O)CSc2ccc(Br)cc2)cc1S(=O)(=O)N1CCOCC1	inconclusive: 3.55 µM [inhibitor, single point]
CCSc1nnc(NC(=O)c2ccc(Br)s2)s1	inactive

The list goes on.

SMILES	Potency
O=C(NCC(=O)N1CCN(c2cccc(Cl)c2)CC1)c1ccc(Br)o1	inconclusive: 35.5 µM [inhibitor, single point]
O=C(CCc1nc2cccnc2n1-c1ccccc1)Nc1ccc(Cl)c(Cl)c1	inconclusive: 28.2 µM [inhibitor, single point]
CN(C)c1ccc(C2C=C(c3ccccc3)Nc3nnnn32)cc1 (stereo unspecified)	active: 25.1 µM
Cc1nn(CC(=O)N(C)Cc2ccccc2)c(=O)c2cccn12	inconclusive: 2.82 µM [inhibitor, partial curve, poor fit]
CN1CCN(C(=O)c2cc3sc4ccccc4c3s2)CC1	inactive
CCCOc1ccc(NC(=O)CC2C(=O)N(c3ccc(OCC)cc3)C(=S)N2C2CC2)cc1 (stereo unspecified)	inconclusive: 10 µM [inhibitor, partial curve]
COc1ccc(-c2nc3c(-c4ccc(F)cc4)cnn3cc2C)cc1F	inconclusive: 35.5 µM [inhibitor, single point]
O=C(NCCCn1ccnc1)/C(=C/c1cccs1)NC(=O)c1ccco1	inconclusive: 25.1 µM [inhibitor, single point]
CC(=O)N/C(=C\c1ccccc1)C(=O)Nc1ccc(O)cc1	inconclusive: 11.2 µM [inhibitor, partial curve, poor fit]
O=C(O)CCSc1nnc(COc2cccc3ccccc23)n1-c1cccc(Cl)c1	inconclusive: 3.55 µM [inhibitor, partial curve, poor fit]
O=C(OCc1nnc(-c2ccccc2Br)o1)c1ccco1	inconclusive: 35.5 µM [inhibitor, single point]
N#Cc1cccc(NC(=O)CN2C(=O)NC3(CCCCCC3)C2=O)c1	inconclusive: 3.55 µM [inhibitor, single point]
C[C@H](NC(=O)[C@@H]1CSC2c3ccccc3C(=O)N21)C(=O)NC1CCCC1 (stereo partly specified)	inactive
CCN(CC)CCN(C(=O)c1cc2c(ccc3ccccc32)oc1=O)c1nc2cc3c(cc2s1)OCCO3	inconclusive: 15.8 µM [inhibitor, partial curve, poor fit]
Cc1ccsc1/C=N/Nc1nc(=O)[nH]nc1C	inconclusive: 5.62 µM [inhibitor, single point]
CCOc1cc(CNC(C)(C)C)ccc1OCC(=O)Nc1cccc(C(F)(F)F)c1	inconclusive: 11.2 µM [inhibitor, single point]
Cc1cccc(C(=O)Nc2ccccc2NC(=O)c2cccc(C)c2)c1	inconclusive: 35.5 µM [inhibitor, single point]
COCCn1c(=O)[nH]c2cc(C(=O)Nc3cccc(F)c3)ccc2c1=O	inactive
O=C(Nc1cccc(/C=C/c2ccccn2)c1)c1cc(Cl)ccn1	inconclusive: 3.16 µM [inhibitor, full curve]
CCOc1cc(/C=C2\SC(N3CCCC(C)C3)=NC2=O)ccc1O (stereo unspecified)	inconclusive: 11.2 µM [inhibitor, single point]
COc1ccc(N2CCN(CC(=O)c3ccccc3)CC2)cc1	inconclusive: 35.5 µM [inhibitor, single point]
CNc1ccc(-c2nc(-c3ccco3)no2)cc1[N+](=O)[O-]	inconclusive: 10 µM [inhibitor, partial curve, poor fit]

SMILES	Potency
Cc1nn(Cc2c(Cl)cccc2Cl)c(C)c1NC(=O)c1cn(-c2ccccc2)nc1-c1ccccc1	inconclusive: 6.31 µM [inhibitor, single point]
CC1CCC(NC(=O)CCS(=O)(=O)c2ccc3c(c2)NC(=O)CS3)CC1 (stereo unspecified)	inactive
Cc1cc2c(cc1C)NC(CC(=O)Nc1cccc(Cl)c1)C(=O)N2 (stereo unspecified)	inconclusive: 22.4 µM [inhibitor, single point]
CCCS(=O)(=O)N1CCCC(C(=O)NCCCOCC)C1 (stereo unspecified)	inconclusive: 3.16 µM [inhibitor, single point]
Cc1ccc(NC(=O)[C@@H]2CCCN2S(=O)(=O)c2ccccc2F)cc1	inconclusive: 15.8 µM [inhibitor, single point]
O=C1CSC(=S)N1/N=C/c1cc(Br)c(O)c(Br)c1	inconclusive: 2.51 µM [inhibitor, partial curve, poor fit]
COc1ccc(S(=O)(=O)N2CCc3cc(OC)c(OC)cc3C2)cc1	inactive
COCCN1CCN(C(=O)c2cc(COc3ccc(F)c(F)c3)on2)CC1	inactive
CCc1nnc(NC(=O)c2ccc(S(=O)(=O)N(C)c3ccccc3)cc2)o1	inconclusive: 14.1 µM [inhibitor, single point]
O=C(COC(=O)c1cccc(F)c1)NC1CC1	inconclusive: 35.5 µM [inhibitor, partial curve, poor fit]
COc1ccc(NC(=O)COc2ccc(C)cc2)c([N+](=O)[O-])c1	inconclusive: 25.1 µM [inhibitor, single point]
O=C(NCc1ccc(F)cc1)c1cccc2c1C(=O)c1ccc(N3CCC(N4CCCCC4)CC3)cc1S2(=O)=O	inconclusive: 35.5 µM [inhibitor, single point]
COc1ccc(-c2ncccc2OC(=O)C23CC4CC(CC(C4)C2)C3)cc1	inconclusive: 15.8 µM [inhibitor, single point]
O=[N+]([O-])c1cccnc1N/N=C/c1ccccc1O	inconclusive: 6.31 µM [inhibitor, partial curve, poor fit]
COc1ccc(/C=C2/C(=O)N=C(N)N2C)cc1OC	inconclusive: 35.5 µM [inhibitor, single point]
Cc1ccc(-c2nc(C=Nc3ccc(O)cc3)c(O)o2)cc1	active: 25.1 µM
Cc1[nH]n(C)c(=O)c1C(=O)c1c(-c2ccccc2Cl)noc1C	inactive
CC(=O)/C(=C/c1ccccc1)C(=O)Nc1ccccc1C	inactive
COC(=O)c1ccc(N)c(N=CC2=C(O)CC(C)(C)CC2=O)c1	inconclusive: 22.4 µM [inhibitor, partial curve, poor fit]
CCC(=O)Nc1cccc(C(=O)/C=C/c2ccccc2)c1	inactive
COC(=O)c1sc(NC(=O)COc2ccc(OC)cc2)nc1C	inconclusive: 25.1 µM [inhibitor, single point]
CCOC(=O)c1c(NC(=O)c2ccc(S(=O)(=O)N3CCC(C)CC3)cc2)sc2c1CCN(CC)C2	inconclusive: 17.8 µM [inhibitor, single point]
